Patent publication US20250283871A1, “COMPOSITIONS AND METHODS FOR MODULATING THE INTERACTION BETWEEN SS18-SSX FUSION ONCOPROTEIN AND NUCLEOSOMES” (Dana-Farber Cancer Institute, Inc., priority 2020, published 2025)

B1: JPH1 (protein, UniProt Q9HDC5 1-661, looked up)
Junctophilin-1: MTGGRFDFDDGGTYCGGWEEGKAHGHGICTGPKGQGEYSGSWSHGFEVVGGYTWPSGNTYQGYWAQGKRHGLGVETKGKWMYRGEWSHGFKGRYGVRQSLCTPARYEGTWSNGLQDGYGVETYGDGGTYQGQWAGGMRHGYGVRQSVPYGMATVIRSPLRTSLASLRSEQSNGSVLHDAAAAADSPAGTRGGFVLNFHADAELAGKKKGGLFRRGSLLGSMKLRKSESKSSISSKRSSVRSDAAMSRISSSDANSTISFGDVDCDFCPVEDHVDATTTETYMGEWKNDKRNGFGVSERSNGMKYEGEWANNKRHGYGCTVFPDGSKEEGKYKNNILVRGIRKQLIPIRHTKTREKVDRAIEGAQRAAAMARTKVEIANSRTAHARAKADAADQAALAARQECDIARAVARELSPDFYQPGPDYVKQRFQEGVDAKENPEEKVPEKPPTPKESPHFYRKGTTPPRSPEASPKHSHSPASSPKPLKKQNPSSGARLNQDKRSVADEQVTAIVNKPLMSKAPTKEAGAVVPQSKYSGRHHIPNPSNGELHSQYHGYYVKLNAPQHPPVDVEDGDGSSQSSSALVHKPSANKWSPSKSVTKPVAKESKAEPKAKKSELAIPKNPASNDSCPALEKEANSGPNSIMIVLVMLLNIGLAILFVHFLT
B2: CYB5R3 (protein, UniProt P00387 2-301, looked up)
NADH-cytochrome b5 reductase 3: GAQLSTLGHMVLFPVWFLYSLLMKLFQRSTPAITLESPDIKYPLRLIDREIISHDTRRFRFALPSPQHILGLPVGQHIYLSARIDGNLVVRPYTPISSDDDKGFVDLVIKVYFKDTHPKFPAGGKMSQYLESMQIGDTIEFRGPSGLLVYQGKGKFAIRPDKKSNPIIRTVKSVGMIAGGTGITPMLQVIRAIMKDPDDHTVCHLLFANQTEKDILLRPELEELRNKHSARFKLWYTLDRAPEAWDYGQGFVNEEMIRDHLPPPEEEPLVLMCGPPPMIQYACLPNLDHVGHPTERCFVF
B3: SLC25A40 (protein, UniProt Q8TBP6 1-338, looked up)
Mitochondrial glutathione …: MDPETRGQEIIKVTPLQQMLASCTGAILTSVIVTPLDVVKIRLQAQNNPLPKGKCFVYSNGLMDHLCVCEEGGNKLWYKKPGNFQGTLDAFFKIIRNEGIKSLWSGLPPTLVMAVPATVIYFTCYDQLSALLRSKLGENETCIPIVAGIVARFGAVTVISPLELIRTKMQSKKFSYVELHRFVSKKVSEDGWISLWRGWAPTVLRDVPFSAMYWYNYEILKKWLCEKSGLYEPTFMINFTSGALSGSFAAVATLPFDVVKTQKQTQLWTYESHKISMPLHMSTWIIMKNIVAKNGFSGLFSGLIPRLIKIAPACAIMISTYEFGKAFFQKQNVRRQQY
B4: RHBDD2 (protein, UniProt Q6NTF9 1-364, looked up)
Rhomboid domain-containing …: MAASGPGCRSWCLCPEVPSATFFTALLSLLVSGPRLFLLQQPLAPSGLTLKSEALRNWQVYRLVTYIFVYENPISLLCGAIIIWRFAGNFERTVGTVRHCFFTVIFAIFSAIIFLSFEAVSSLSKLGEVEDARGFTPVAFAMLGVTTVRSRMRRALVFGMVVPSVLVPWLLLGASWLIPQTSFLSNVCGLSIGLAYGLTYCYSIDLSERVALKLDQTFPFSLMRRISVFKYVSGSSAERRAAQSRKLNPVPGSYPTQSCHPHLSPSHPVSQTQHASGQKLASWPSCTPGHMPTLPPYQPASGLCYVQNHFGPNPTSSSVYPASAGTSLGIQPPTPVNSPGTVYSGALGTPGAAGSKESSRVPMP
B5: MPDU1 (protein, UniProt O75352 2-247, looked up)
Mannose-P-dolichol …: AAEADGPLKRLLVPILLPEKCYDQLFVQWDLLHVPCLKILLSKGLGLGIVAGSLLVKLPQVFKILGAKSAEGLSLQSVMLELVALTGTMVYSITNNFPFSSWGEALFLMLQTITICFLVMHYRGQTVKGVAFLACYGLVLLVLLSPLTPLTVVTLLQASNVPAVVVGRLLQAATNYHNGHTGQLSAITVFLLFGGSLARIFTSIQETGDPLMAGTFVVSSLCNGLIAAQLLFYWNAKPPHKQKKAQ
B6: SLC38A2 (protein, UniProt Q96QD8 1-506, looked up)
Sodium-coupled neutral amino …: MKKAEMGRFSISPDEDSSSYSSNSDFNYSYPTKQAALKSHYADVDPENQNFLLESNLGKKKYETEFHPGTTSFGMSVFNLSNAIVGSGILGLSYAMANTGIALFIILLTFVSIFSLYSVHLLLKTANEGGSLLYEQLGYKAFGLVGKLAASGSITMQNIGAMSSYLFIVKYELPLVIQALTNIEDKTGLWYLNGNYLVLLVSLVVILPLSLFRNLGYLGYTSGLSLLCMVFFLIVVICKKFQVPCPVEAALIINETINTTLTQPTALVPALSHNVTENDSCRPHYFIFNSQTVYAVPILIFSFVCHPAVLPIYEELKDRSRRRMMNVSKISFFAMFLMYLLAALFGYLTFYEHVESELLHTYSSILGTDILLLIVRLAVLMAVTLTVPVVIFPIRSSVTHLLCASKDFSWWRHSLITVSILAFTNLLVIFVPTIRDIFGFIGASAASMLIFILPSAFYIKLVKKEPMKSVQKIGALFFLLSGVLVMTGSMALIVLDWVHNAPGGGH
B7: METTL7A (protein, UniProt Q9H8H3 30-244, looked up)
Thiol S-methyltransferase …: WICKKWFPYFLVRFTVIYNEQMASKKRELFSNLQEFAGPSGKLSLLEVGCGTGANFKFYPPGCRVTCIDPNPNFEKFLIKSIAENRHLQFERFVVAAGENMHQVADGSVDVVVCTLVLCSVKNQERILREVCRVLRPGGAFYFMEHVAAECSTWNYFWQQVLDPAWHLLFDGCNLTRESWKALERASFSKLKLQHIQAPLSWELVRPHIYGYAVK

System: BAF complex subunits and histone proteins
Test: Mass spectrometry proteomics of purified HA-SS18 WT and HA-SS18-SSX1 complexes (Tables 5A-5E)
Design: species or system human
Details: HA-SS18SSX1_NE_peptides: protein co-purified with HA-SS18-SSX1 BAF complexes from soluble nuclear extract (NE), HEK-293T cells

Total (peptides), 1:
B1
B2
B3
B4
B5
B6
B7

Unique (peptides), 1:
B1
B2
B3
B4
B5
B6
B7

Same assay, conditions: HA-SS18WT_NE_peptides: proteins co-purified with HA-SS18 WT from nuclear extract (NE), HEK-293T

Total (peptides), 1:
B1
B3
B4
B5
B6

Unique (peptides), 1:
B1
B3
B4
B5
B6
